Values from PubChem BioAssay AID1259308 (NCATS, 2017)
Assay: 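Knock-downs that increase output of a recombinant reporter protein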 (primary screen). Cells: human HEK293 embryonic kidney cells stably expressing firefly luciferase (HEK-CMV-Luc2-Hygro). Reagent: single siRNA against human genes, 0.8 pmol siRNA per well. Timing: 72 h. Measurement: 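Reporter luminescence and viable-cell signal on separate replicate plates, given as percent of non-targeting control and median/MAD z-scores, plus per-cell luciferase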. Direction: total luciferase, z-score: higher = more reporter protein produced. Rule for the call: 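Active when the median/MAD z-score for overall luciferase is greater than 3; a gene was taken forward for validation with new siRNAs if at least two of its three siRNAs passed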. Calls: active = raised luciferase; inactive = no rise.
In all, the deposit lists about 59,000 reagents; below is a part drawn at random. In the full data, about 1,510 (2.6%) got an active call. 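Calls use total luciferase alone and ignore viability, so some active siRNAs may act by altering cell number.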 Reagents against one gene are numbered here. Not all columns of the deposit are shown.

{"gene symbol":"WDR90 (WD repeat domain 90)","reagent no.":1,"total luciferase, z-score":0.842,"call":"inactive"}
{"gene symbol":"WDR90 (WD repeat domain 90)","reagent no.":2,"total luciferase, z-score":0.0698,"call":"inactive"}
{"gene symbol":"WDR90 (WD repeat domain 90)","reagent no.":3,"total luciferase, z-score":1.01,"call":"inactive"}
{"gene symbol":"DIO3 (iodothyronine deiodinase 3)","reagent no.":1,"total luciferase, z-score":0.181,"call":"inactive"}
{"gene symbol":"DIO3 (iodothyronine deiodinase 3)","reagent no.":2,"total luciferase, z-score":1.52,"call":"inactive"}
{"gene symbol":"DIO3 (iodothyronine deiodinase 3)","reagent no.":3,"total luciferase, z-score":0.351,"call":"inactive"}
{"gene symbol":"CLEC9A (C-type lectin domain containing 9A)","reagent no.":1,"total luciferase, z-score":-0.13,"call":"inactive"}
{"gene symbol":"CLEC9A (C-type lectin domain containing 9A)","reagent no.":2,"total luciferase, z-score":-0.215,"call":"inactive"}
{"gene symbol":"CLEC9A (C-type lectin domain containing 9A)","reagent no.":3,"total luciferase, z-score":-1.25,"call":"inactive"}
{"gene symbol":"C1orf56 (chromosome 1 open reading frame 56)","reagent no.":1,"total luciferase, z-score":-0.364,"call":"inactive"}
{"gene symbol":"C1orf56 (chromosome 1 open reading frame 56)","reagent no.":2,"total luciferase, z-score":-0.0405,"call":"inactive"}
{"gene symbol":"C1orf56 (chromosome 1 open reading frame 56)","reagent no.":3,"total luciferase, z-score":3.66,"call":"active"}

Part of the list above in another layout.
DIO3 (iodothyronine deiodinase 3) #3 — total luciferase, z-score: 0.351; call: inactive
CLEC9A (C-type lectin domain containing 9A) #1 — total luciferase, z-score: -0.13; call: inactive
